Data taken from the supplement of paper PMC10849652.
The other results are listed elsewhere or left out.

The chains behind the UniProt entries cited, without tags or fusion partners. Where a name states a change or a piece, a line headed by the entry shows the natural chain unless it says otherwise.
UniProt Q9Y5K8, whole entry, looked up: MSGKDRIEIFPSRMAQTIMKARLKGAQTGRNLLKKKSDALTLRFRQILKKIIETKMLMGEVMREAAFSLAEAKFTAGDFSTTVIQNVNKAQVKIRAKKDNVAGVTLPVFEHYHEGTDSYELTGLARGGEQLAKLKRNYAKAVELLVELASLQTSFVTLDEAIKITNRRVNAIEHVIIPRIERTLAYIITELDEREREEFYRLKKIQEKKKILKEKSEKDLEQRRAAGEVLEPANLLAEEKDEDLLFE
UniProt P61421, whole entry, looked up: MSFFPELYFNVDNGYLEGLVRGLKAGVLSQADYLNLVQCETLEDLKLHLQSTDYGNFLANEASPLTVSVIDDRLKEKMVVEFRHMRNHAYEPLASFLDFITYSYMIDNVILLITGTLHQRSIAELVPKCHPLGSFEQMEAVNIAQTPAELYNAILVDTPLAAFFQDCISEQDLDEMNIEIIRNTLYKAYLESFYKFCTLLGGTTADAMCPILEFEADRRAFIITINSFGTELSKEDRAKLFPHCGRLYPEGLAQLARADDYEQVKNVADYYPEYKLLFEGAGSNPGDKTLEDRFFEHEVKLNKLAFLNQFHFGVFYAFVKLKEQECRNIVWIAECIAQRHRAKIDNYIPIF
UniProt P54259: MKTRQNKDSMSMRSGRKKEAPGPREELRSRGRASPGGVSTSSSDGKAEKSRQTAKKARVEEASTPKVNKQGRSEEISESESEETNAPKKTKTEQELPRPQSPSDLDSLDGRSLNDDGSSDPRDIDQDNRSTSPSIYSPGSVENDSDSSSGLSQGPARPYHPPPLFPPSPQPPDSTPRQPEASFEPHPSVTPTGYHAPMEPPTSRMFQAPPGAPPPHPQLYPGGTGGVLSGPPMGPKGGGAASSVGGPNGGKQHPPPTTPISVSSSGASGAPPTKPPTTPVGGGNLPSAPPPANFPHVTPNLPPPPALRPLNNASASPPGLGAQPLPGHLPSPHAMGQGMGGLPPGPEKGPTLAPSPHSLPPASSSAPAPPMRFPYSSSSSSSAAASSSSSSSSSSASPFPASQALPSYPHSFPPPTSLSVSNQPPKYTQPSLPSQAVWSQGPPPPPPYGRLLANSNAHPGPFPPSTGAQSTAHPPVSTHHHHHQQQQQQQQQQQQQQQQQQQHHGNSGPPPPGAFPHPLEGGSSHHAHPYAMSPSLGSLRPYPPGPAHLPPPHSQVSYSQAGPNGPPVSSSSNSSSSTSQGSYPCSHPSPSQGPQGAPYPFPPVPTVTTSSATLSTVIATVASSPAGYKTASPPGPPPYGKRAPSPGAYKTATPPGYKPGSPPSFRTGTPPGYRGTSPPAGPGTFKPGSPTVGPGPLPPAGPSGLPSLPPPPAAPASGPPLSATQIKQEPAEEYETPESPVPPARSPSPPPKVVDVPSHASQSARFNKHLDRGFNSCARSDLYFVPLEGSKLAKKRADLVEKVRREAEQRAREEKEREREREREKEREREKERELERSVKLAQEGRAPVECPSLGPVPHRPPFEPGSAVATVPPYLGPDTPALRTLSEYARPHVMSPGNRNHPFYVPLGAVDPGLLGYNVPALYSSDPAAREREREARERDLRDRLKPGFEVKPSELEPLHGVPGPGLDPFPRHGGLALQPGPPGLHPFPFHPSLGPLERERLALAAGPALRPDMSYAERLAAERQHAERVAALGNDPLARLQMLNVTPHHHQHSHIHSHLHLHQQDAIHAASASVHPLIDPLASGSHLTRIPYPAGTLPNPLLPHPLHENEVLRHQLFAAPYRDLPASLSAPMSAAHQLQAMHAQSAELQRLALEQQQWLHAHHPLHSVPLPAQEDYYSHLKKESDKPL
UniProt O95260: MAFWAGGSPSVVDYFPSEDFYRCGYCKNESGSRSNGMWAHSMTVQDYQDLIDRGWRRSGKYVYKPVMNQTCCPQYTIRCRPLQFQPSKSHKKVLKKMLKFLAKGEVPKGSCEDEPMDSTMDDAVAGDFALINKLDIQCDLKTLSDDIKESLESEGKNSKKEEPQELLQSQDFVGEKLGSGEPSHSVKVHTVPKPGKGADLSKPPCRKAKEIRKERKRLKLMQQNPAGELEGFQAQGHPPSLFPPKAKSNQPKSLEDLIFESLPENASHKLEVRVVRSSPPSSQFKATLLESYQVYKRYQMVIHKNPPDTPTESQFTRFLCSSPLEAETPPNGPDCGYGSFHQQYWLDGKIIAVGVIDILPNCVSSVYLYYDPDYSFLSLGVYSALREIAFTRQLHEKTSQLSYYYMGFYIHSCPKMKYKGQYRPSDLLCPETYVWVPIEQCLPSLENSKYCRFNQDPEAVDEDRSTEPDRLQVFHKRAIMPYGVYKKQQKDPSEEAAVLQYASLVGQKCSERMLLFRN
UniProt Q9BYG0: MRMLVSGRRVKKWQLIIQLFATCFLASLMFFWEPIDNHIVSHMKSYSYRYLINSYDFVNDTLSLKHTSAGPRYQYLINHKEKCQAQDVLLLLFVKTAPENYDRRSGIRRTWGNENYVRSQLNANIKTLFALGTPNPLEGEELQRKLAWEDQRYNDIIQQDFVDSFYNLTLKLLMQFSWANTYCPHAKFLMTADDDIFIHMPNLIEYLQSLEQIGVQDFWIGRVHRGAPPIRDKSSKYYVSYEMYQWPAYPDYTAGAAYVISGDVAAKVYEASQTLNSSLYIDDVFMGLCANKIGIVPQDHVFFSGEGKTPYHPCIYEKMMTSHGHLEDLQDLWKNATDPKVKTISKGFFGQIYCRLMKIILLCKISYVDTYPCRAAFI
UniProt Q14CW9: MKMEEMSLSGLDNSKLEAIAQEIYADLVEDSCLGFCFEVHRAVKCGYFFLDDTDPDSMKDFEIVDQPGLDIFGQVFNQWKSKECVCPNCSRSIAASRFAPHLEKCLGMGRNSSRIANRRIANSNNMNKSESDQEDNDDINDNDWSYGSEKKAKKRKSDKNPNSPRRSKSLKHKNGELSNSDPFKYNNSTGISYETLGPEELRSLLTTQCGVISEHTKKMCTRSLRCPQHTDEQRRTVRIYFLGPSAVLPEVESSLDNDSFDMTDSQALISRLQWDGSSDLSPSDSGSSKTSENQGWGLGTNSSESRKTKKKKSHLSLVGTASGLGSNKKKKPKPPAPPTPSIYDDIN
UniProt Q9H1I8: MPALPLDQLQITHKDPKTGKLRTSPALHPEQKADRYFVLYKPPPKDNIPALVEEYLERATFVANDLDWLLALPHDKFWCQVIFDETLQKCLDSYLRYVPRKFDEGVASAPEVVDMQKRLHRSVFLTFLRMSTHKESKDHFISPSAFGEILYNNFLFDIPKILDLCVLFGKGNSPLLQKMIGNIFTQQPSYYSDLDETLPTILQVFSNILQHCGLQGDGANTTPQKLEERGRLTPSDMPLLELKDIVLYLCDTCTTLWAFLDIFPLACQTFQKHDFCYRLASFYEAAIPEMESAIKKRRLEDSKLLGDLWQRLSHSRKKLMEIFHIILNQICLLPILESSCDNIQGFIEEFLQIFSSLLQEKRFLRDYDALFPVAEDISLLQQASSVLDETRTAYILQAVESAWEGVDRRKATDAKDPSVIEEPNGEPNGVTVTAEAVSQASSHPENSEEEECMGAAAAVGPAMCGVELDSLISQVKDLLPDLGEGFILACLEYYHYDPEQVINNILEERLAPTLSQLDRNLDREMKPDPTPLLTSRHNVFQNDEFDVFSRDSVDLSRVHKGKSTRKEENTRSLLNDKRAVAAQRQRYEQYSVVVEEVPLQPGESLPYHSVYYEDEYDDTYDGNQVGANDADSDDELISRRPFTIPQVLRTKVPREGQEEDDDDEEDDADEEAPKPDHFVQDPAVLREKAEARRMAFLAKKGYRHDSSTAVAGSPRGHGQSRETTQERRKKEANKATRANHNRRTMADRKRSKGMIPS
UniProt P14415, whole entry, looked up: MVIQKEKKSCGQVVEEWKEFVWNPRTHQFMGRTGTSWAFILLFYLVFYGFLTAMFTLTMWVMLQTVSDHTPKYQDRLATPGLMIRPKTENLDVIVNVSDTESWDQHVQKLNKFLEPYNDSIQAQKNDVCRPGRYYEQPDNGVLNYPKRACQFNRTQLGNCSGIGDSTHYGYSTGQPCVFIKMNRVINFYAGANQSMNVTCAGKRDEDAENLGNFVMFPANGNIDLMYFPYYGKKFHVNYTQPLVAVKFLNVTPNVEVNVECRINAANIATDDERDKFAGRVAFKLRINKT
UniProt O75882: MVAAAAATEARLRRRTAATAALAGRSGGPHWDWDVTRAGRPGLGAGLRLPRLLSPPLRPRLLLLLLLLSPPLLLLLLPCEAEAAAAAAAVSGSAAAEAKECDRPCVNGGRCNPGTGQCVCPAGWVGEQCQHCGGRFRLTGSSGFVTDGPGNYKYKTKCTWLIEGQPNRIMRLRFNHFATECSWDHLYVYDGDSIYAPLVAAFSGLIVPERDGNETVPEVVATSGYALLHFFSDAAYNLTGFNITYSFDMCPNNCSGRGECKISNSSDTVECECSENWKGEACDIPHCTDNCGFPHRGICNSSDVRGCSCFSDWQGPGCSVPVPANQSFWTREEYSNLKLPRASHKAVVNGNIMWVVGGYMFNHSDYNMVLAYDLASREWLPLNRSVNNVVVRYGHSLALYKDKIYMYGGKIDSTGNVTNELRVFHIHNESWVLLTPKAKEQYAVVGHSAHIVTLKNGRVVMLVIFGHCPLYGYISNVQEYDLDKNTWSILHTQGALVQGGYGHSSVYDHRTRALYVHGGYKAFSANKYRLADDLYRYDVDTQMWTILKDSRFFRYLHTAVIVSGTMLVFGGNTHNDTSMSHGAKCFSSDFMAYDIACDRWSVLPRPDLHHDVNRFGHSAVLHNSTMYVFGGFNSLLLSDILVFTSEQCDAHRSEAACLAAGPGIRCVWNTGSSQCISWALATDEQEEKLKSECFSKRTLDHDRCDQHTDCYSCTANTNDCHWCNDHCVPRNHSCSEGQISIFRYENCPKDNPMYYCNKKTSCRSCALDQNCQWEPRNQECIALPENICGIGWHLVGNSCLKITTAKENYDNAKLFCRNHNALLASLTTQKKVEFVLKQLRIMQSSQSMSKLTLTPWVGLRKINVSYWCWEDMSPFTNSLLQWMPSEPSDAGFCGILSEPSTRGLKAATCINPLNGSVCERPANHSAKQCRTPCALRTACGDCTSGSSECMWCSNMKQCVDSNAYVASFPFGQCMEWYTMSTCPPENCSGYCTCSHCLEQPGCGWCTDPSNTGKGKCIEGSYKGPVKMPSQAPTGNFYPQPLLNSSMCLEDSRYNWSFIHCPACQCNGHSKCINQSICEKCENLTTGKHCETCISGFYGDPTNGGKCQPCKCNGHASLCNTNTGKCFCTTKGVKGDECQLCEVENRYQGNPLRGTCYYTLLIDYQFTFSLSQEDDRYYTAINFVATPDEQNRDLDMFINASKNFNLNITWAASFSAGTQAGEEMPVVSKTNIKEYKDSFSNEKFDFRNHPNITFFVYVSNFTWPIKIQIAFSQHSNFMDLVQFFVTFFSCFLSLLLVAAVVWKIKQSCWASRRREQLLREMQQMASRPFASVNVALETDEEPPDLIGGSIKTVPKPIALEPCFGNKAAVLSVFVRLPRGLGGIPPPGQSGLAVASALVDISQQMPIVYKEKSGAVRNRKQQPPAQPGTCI
UniProt Q5U623: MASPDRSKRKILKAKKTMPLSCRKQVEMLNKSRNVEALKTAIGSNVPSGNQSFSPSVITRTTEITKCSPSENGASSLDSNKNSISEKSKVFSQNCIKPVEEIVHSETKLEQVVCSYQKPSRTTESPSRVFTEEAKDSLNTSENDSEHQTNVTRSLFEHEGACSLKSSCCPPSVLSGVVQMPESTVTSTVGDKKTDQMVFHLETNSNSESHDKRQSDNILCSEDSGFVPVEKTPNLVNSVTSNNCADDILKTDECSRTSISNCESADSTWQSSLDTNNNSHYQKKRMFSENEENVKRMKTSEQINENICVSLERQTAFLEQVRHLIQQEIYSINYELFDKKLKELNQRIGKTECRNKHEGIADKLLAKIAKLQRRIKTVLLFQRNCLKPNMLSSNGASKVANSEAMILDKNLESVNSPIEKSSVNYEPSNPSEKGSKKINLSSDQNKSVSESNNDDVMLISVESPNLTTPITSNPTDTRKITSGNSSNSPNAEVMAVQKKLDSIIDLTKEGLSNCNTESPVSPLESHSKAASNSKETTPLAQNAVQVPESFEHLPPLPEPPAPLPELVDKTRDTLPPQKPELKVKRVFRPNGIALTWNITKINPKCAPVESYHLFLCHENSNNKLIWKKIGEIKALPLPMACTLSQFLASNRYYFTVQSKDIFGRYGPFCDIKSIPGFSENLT
UniProt Q13825: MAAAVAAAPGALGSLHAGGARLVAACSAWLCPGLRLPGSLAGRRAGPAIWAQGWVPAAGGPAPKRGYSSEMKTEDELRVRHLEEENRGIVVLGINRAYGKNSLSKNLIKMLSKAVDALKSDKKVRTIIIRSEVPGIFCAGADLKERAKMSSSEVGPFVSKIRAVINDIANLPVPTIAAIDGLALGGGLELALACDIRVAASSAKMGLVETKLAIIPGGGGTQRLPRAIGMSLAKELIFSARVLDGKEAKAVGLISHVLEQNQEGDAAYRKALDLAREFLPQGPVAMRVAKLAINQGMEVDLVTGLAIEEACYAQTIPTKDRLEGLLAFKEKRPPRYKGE

Legend:
Assay in all cases: log2 fold change, soluble protein after heating vs DMSO (PISA); higher = thermal stabilisation; K562 lysate, 10 uM; active = over 0.2 and 3.5 SD of the protein, either way, in both replicates (recomputed)
[1] = compound: CS(=O)(=O)CCNCc1ccc(-c2ccc3ncnc(Nc4ccc(OCc5cccc(F)c5)c(Cl)c4)c3c2)o1 [lapatinib]
Method in brief: (§1)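 Pellets of K562 cells were dounce-homogenised in PBS pH 7.4 with 1 mM MgCl2, and the crude extract was held at 1 mg/mL protein for a 30 min treatment with 10 μM compound. Aliquots were heated for 3 min over 48°C-58°C and pooled before NP-40 was added to 0.5% at 4°C. The supernatant from 21,000xg for 90 min was quantified by TMTpro 16plex LC-MS/MS with channel sums equalised. Values are reported from duplicates as log-two fold change in thermal stability relative to solvent controls.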

[2] = compound: CS(=O)(=O)N1CCN(Cc2cc3nc(-c4cccc5[nH]ncc45)nc(N4CCOCC4)c3s2)CC1 [pictilisib]
Method in brief: as §1

[3] = compound: C[C@@H](Oc1cc(-c2cnn(C3CCNCC3)c2)cnc1N)c1c(Cl)ccc(F)c1Cl [crizotinib]
Method in brief: as §1

[4] = compound: C[C@H](C1=CC=C(C=C1)C(=O)NC2=C3C=CNC3=NC=C2)N
Method in brief: as §1

[5] = compound: C[C@H](Nc1ncnc2nc[nH]c12)c1cc2cccc(Cl)c2c(=O)n1-c1ccccc1 [duvelisib]
Method in brief: as §1

[6] = compound: Cc1cc(Nc2cc(CN3CCOCC3)c3nc(C)c(Cc4ccc(Cl)cc4F)n3n2)n[nH]1 [gandotinib]
Method in brief: as §1

[7] = compound: Cc1cc(Nc2cc(N3CCN(C)CC3)nc(Sc3ccc(NC(=O)C4CC4)cc3)n2)n[nH]1 [tozasertib]
Method in brief: as §1

[8] = compound: Cc1ccc(-n2nc(C(C)(C)C)cc2NC(=O)Nc2ccc(OCCN3CCOCC3)c3ccccc23)cc1 [doramapimod]
Method in brief: as §1

[9] = compound: Cc1ccc(NC(=O)c2ccc(CN3CC[C@H](N(C)C)C3)c(C(F)(F)F)c2)cc1Nc1nccc(-c2cncnc2)n1 [bafetinib]
Method in brief: as §1

[10] = compound: Cc1cccc(CC(=O)N2CCc3c2ccc(-c2cn(C)c4ncnc(N)c24)c3F)n1
Method in brief: as §1

[11] = compound: Cc1cn(-c2cc(NC(=O)c3ccc(C)c(Nc4nccc(-c5cccnc5)n4)c3)cc(C(F)(F)F)c2)cn1 [nilotinib]
Method in brief: as §1

[12] = compound: Cc1nc(Nc2n[nH]c3c2CN(C(=O)N[C@H](CN(C)C)c2ccccc2)C3(C)C)c2sccc2n1
Method in brief: as §1

[13] = compound: Cc1nc(Nc2ncc(C(=O)Nc3c(C)cccc3Cl)s2)cc(N2CCN(CCO)CC2)n1 [dasatinib]
Method in brief: as §1

[14] = compound: Cc1ncc(-c2ccnc(Nc3ccc(S(C)(=O)=O)cc3)n2)n1C(C)C
Method in brief: as §1

[15] = compound: Cn1cc(-c2ccc3c(c2)CCN3C(=O)Cc2cccc(C(F)(F)F)c2)c2c(N)ncnc21
Method in brief: as §1

[16] = compound: Cn1cc(CNCC2CCN(c3ncc(C(=O)NO)cn3)CC2)c2ccccc21 [quisinostat]
Method in brief: as §1

[17] = compound: Cn1cncc1[C@@](N)(c1ccc(Cl)cc1)c1ccc2c(c1)c(-c1cccc(Cl)c1)cc(=O)n2C [tipifarnib]
Method in brief: as §1

[18] = compound: NC(=O)Nc1cc(-c2cccc(F)c2)sc1C(=O)N[C@H]1CCCNC1
Method in brief: as §1

[19] = compound: NC(=O)c1cnc(N[C@@H]2CCCC[C@@H]2N)nc1Nc1cccc(-n2nccn2)c1
Method in brief: as §1

[20] = compound: NC1(c2ccc(-c3nc4ccn5c(=O)[nH]nc5c4cc3-c3ccccc3)cc2)CCC1
Method in brief: as §1

Measured: log2 fold change

ATP6V1D (UniProt Q9Y5K8)
inactive: [1] 0.002 | [2] 0.01 | [3] 0.052 | [4] 0.117 | [5] 0.009 | [6] 0 | [7] -0.002 | [8] -0.026 | [9] -0.013 | [10] -0.047 | [11] -0.014 | [12] 0.028 | [13] 0.046 | [14] 0.004 | [15] 0.01 | [16] 0.072 | [17] 0.002 | [18] -0.01 | [19] -0.014 | [20] 0.01

ATP6V0D1 (UniProt P61421)
inactive: [1] 0.047 | [2] 0.042 | [3] 0.036 | [4] 0.061 | [5] 0.031 | [6] -0.029 | [7] 0.042 | [8] 0.016 | [9] 0.043 | [10] 0.027 | [11] 0.05 | [12] -0.027 | [13] -0.016 | [14] 0.08 | [15] 0.017 | [16] 0.05 | [17] 0.002 | [18] -0.033 | [19] -0.037 | [20] 0.011

ASNS (UniProt P08243)
inactive: [1] -0.019 | [2] -0.012 | [3] -0.042 | [4] 0.013 | [5] -0.001 | [6] -0.051 | [7] 0.011 | [8] -0.01 | [9] -0.033 | [10] 0.002 | [11] -0.004 | [12] -0.008 | [13] -0.039 | [14] -0.018 | [15] 0.025 | [16] 0.027 | [17] 0.017 | [18] 0.027 | [19] -0.01 | [20] -0.028

ATP1A3 isoform 3 (UniProt P13637)
inactive: [1] -0.022 | [2] 0.002 | [3] -0.014 | [4] -0.007 | [5] 0.059 | [6] 0.004 | [7] -0.01 | [8] 0.017 | [9] 0.013 | [10] 0.062 | [11] 0.069 | [12] -0.041 | [13] -0.013 | [14] 0.017 | [15] 0.011 | [16] -0.046 | [17] -0.006 | [18] -0.022 | [19] 0.011 | [20] -0.018

ATN1 (UniProt P54259)
inactive: [1] -0.004 | [2] -0.03 | [3] 0.023 | [4] -0.06 | [5] 0.009 | [6] 0.14 | [7] 0.036 | [8] -0.024 | [9] 0.08 | [10] 0.124 | [11] -0.001 | [12] 0.043 | [13] -0.005 | [14] 0.035 | [15] -0.006 | [16] 0.01 | [17] 0.026 | [18] 0.044 | [19] 0.074 | [20] 0.017

ATE1 (UniProt O95260)
inactive: [1] -0.03 | [2] -0.047 | [3] -0.068 | [4] 0.032 | [6] -0.019 | [8] 0.043 | [9] -0.039 | [10] 0.009 | [16] 0.019 | [18] -0.093 | [19] 0.026

B3GNT5 (UniProt Q9BYG0)
inactive: [1] -0.121 | [2] -0.295 | [4] -0.066 | [5] 0.012 | [6] -0.075 | [7] -0.122 | [9] 0.076 | [10] -0.062 | [13] 0.055 | [15] 0.003 | [19] 0.072 | [20] -0.081

ATP2C1 isoform 7 (UniProt P98194)
inactive: [1] -0.049 | [2] -0.032 | [3] -0.012 | [4] -0.083 | [5] -0.016 | [6] -0.025 | [7] -0.142 | [8] -0.055 | [9] -0.11 | [10] 0.044 | [11] 0.044 | [12] -0.065 | [13] -0.205 | [14] -0.122 | [15] 0.044 | [16] -0.172 | [17] 0.025 | [18] 0.076 | [19] -0.073 | [20] -0.04

ATP2A2 (UniProt P16615)
inactive: [1] -0.003 | [2] 0.004 | [3] -0.051 | [4] -0.071 | [5] -0.033 | [6] -0.042 | [7] 0.034 | [8] 0.036 | [9] -0.045 | [10] 0.104 | [11] -0.016 | [12] 0.029 | [13] -0.016 | [14] -0.015 | [15] -0.042 | [16] -0.002 | [17] -0.011 | [18] -0.004 | [19] 0.007 | [20] -0.03

ATXN7L3 isoform 2 (UniProt Q14CW9)
inactive: [1] 0.051 | [2] -0.355 | [3] -0.075 | [4] -0.107 | [5] -0.164 | [6] 0.15 | [8] 0.035 | [9] 0.123 | [10] -0.163 | [11] 0.023 | [12] -0.046 | [13] 0.14 | [14] 0.054 | [15] 0.017 | [16] 0.084 | [17] 0.032 | [18] 0.043 | [19] 0.047 | [20] 0.048

ASCC2 (UniProt Q9H1I8)
inactive: [1] -0.012 | [2] 0.049 | [3] -0.044 | [4] 0.048 | [5] 0.04 | [6] -0.026 | [7] 0.023 | [8] -0.007 | [9] -0.205 | [10] -0.002 | [11] -0.005 | [12] -0.029 | [13] -0.01 | [14] -0.018 | [15] 0.026 | [16] -0.06 | [17] 0.082 | [18] 0.035 | [19] 0.038 | [20] -0.023

ASXL2 (UniProt Q76L83)
inactive: [1] 0.055 | [2] -0.1 | [3] -0.038 | [4] 0.069 | [5] -0.073 | [6] -0.091 | [8] -0.099 | [9] 0.032 | [10] 0.082 | [13] 0.017 | [15] -0.098 | [16] 0.155 | [18] -0.009 | [19] -0.001 | [20] -0.354

ATP11C, A0A067XG54
inactive: [1] 0.076 | [2] -0.032 | [3] 0.129 | [4] -0.064 | [5] -0.106 | [6] 0.009 | [8] 0.044 | [9] 0.03 | [10] 0.052 | [13] -0.081 | [15] 0.096 | [16] -0.113 | [18] -0.132 | [19] -0.057 | [20] 0.011

ATP5F1B (UniProt F8W079)
inactive: [1] 0.055 | [2] -0.282 | [7] 0.135 | [9] -0.109 | [11] -0.24 | [12] 0.152 | [14] -0.245 | [17] 0.351 | [19] -0.101

Quoted from the entries so far (four entries):
ATP2C1 isoform 7 (UniProt P98194)
inactive: [1] -0.049 | [2] -0.032 | [3] -0.012 | [4] -0.083 | [5] -0.016 | [6] -0.025 | [7] -0.142 | [8] -0.055 | [9] -0.11 | [10] 0.044 | [11] 0.044 | [12] -0.065 | [13] -0.205 | [14] -0.122 | [15] 0.044 | [16] -0.172 | [17] 0.025 | [18] 0.076 | [19] -0.073 | [20] -0.04

ATP2A2 (UniProt P16615)
inactive: [1] -0.003 | [2] 0.004 | [3] -0.051 | [4] -0.071 | [5] -0.033 | [6] -0.042 | [7] 0.034 | [8] 0.036 | [9] -0.045 | [10] 0.104 | [11] -0.016 | [12] 0.029 | [13] -0.016 | [14] -0.015 | [15] -0.042 | [16] -0.002 | [17] -0.011 | [18] -0.004 | [19] 0.007 | [20] -0.03

ATXN7L3 isoform 2 (UniProt Q14CW9)
inactive: [1] 0.051 | [2] -0.355 | [3] -0.075 | [4] -0.107 | [5] -0.164 | [6] 0.15 | [8] 0.035 | [9] 0.123 | [10] -0.163 | [11] 0.023 | [12] -0.046 | [13] 0.14 | [14] 0.054 | [15] 0.017 | [16] 0.084 | [17] 0.032 | [18] 0.043 | [19] 0.047 | [20] 0.048

ASCC2 (UniProt Q9H1I8)
inactive: [1] -0.012 | [2] 0.049 | [3] -0.044 | [4] 0.048 | [5] 0.04 | [6] -0.026 | [7] 0.023 | [8] -0.007 | [9] -0.205 | [10] -0.002 | [11] -0.005 | [12] -0.029 | [13] -0.01 | [14] -0.018 | [15] 0.026 | [16] -0.06 | [17] 0.082 | [18] 0.035 | [19] 0.038 | [20] -0.023

Continued:

ATP1B2 (UniProt P14415)
inactive: [1] -0.048 | [2] -0.069 | [5] -0.092 | [9] 0.133 | [13] 0.02 | [15] 0.011 | [19] -0.04 | [20] -0.027

ATRN (UniProt O75882)
inactive: [1] 0.018 | [2] -0.151 | [3] 0.042 | [4] -0.008 | [5] 0.013 | [6] -0.027 | [7] -0.055 | [8] -0.048 | [9] 0.054 | [10] -0.009 | [13] -0.038 | [15] 0.066 | [16] -0.068 | [18] -0.001 | [19] -0.121 | [20] -0.064

ATG2A (UniProt Q2TAZ0)
inactive: [1] -0.148 | [2] 0.175 | [9] 0.047 | [11] 0.143 | [12] -0.111 | [14] 0.1 | [17] -0.248 | [19] -0.009 | [20] -0.08

ATF7IP2 (UniProt Q5U623)
inactive: [1] -0.03 | [2] 0.05 | [3] -0.215 | [4] 0.05 | [6] 0.027 | [8] 0.073 | [9] -0.023 | [10] -0.155 | [11] -0.003 | [12] 0.008 | [14] -0.089 | [17] -0.064 | [18] 0.001 | [19] 0.036 | [20] -0.127
active: [16] -0.336

AUH (UniProt Q13825)
inactive: [1] 0.165 | [2] -0.131 | [3] 0.012 | [4] 0.144 | [5] 0.135 | [6] -0.117 | [8] 0.023 | [9] -0.003 | [10] -0.345 | [13] -0.274 | [15] 0.14 | [16] -0.002 | [18] -0.018 | [19] 0.193 | [20] -0.066
active: [7] 0.455
